According to patent publication US20140024683A1, “CHLORIDE CHANNEL AND CHLORIDE TRANSPORTER MODULATORS FOR THERAPY IN SMOOTH MUSCLE DISEASES” (priority 2011, published 2014):
At least one structure is not confirmed: it was looked up by name or label, or the drawing left a doubt. Where a SMILES comes first, the peptide text is derived from it.

System: Ca^2+-activated chloride channel
Test: Patch-clamp analysis of spontaneous transient inward currents (STICs)
Conditions: n=5

## NC(N)=NCCC[C@H](NC(=O)[C@H](Cc1ccccc1)NC(=O)[C@@H]1CCCN1C(=O)[C@H](CO)NC(=O)[C@H](Cc1ccccc1)NC(=O)CNC(=O)[C@@H]1CCCN1C(=O)[C@@H]1CCCN1C(=O)[C@@H](N)CCCN=C(N)N)C(=O)O [bradykinin] (H-RPPGFSPFR-OH)
30 μM bradykinin
  amplitude of STICs: 1.79±0.11 fold change with control normalized to 1
  frequency of STICs: 2.03±0.85 fold change with control normalized to 1
bradykinin
  amplitude of STICs compared to control: 179%
  frequency of STICs compared to control: 203%
